Measurements taken from publication PMC4368798.
For some of these results: A weaker result is weaker than the reference pair of the same experiment. For some of these results: The exact form of at least one protein or probe is not confirmed. For some of these results: A negative result means that nothing was seen under these conditions. For some of these results: At least one verdict rests on a figure or table, not on a statement of the authors.

Columns and labels:
[1] = biological target: pro-uPA R323/166A R343A (Homo sapiens) (UniProt P00749); test: SPR; conditions: 15 nM aptamer, 2'-fluoro pyrimidines (2'-F-C, 2'-F-U), SPR: HBS (20 mM HEPES, 140 mM NaCl, pH 7.4), 2 mM MgCl2, 0.1% BSA, 0.005% Tween 20, temperature not stated, recombinant protein, residues 21-431, synthetic backbone
[2] = biological target: pro-uPA K338/179A K358A (Homo sapiens) (UniProt P00749); test: SPR; conditions: 15 nM aptamer, 2'-fluoro pyrimidines (2'-F-C, 2'-F-U), SPR: HBS (20 mM HEPES, 140 mM NaCl, pH 7.4), 2 mM MgCl2, 0.1% BSA, 0.005% Tween 20, temperature not stated, recombinant protein, residues 21-431, synthetic backbone
[3] = biological target: pro-uPA wild type (Homo sapiens) (UniProt P00749); test: SPR; conditions: 15 nM aptamer, wild-type reference; 2'-fluoro pyrimidines (2'-F-C, 2'-F-U); SPR: HBS (20 mM HEPES, 140 mM NaCl, pH 7.4), 2 mM MgCl2, 0.1% BSA, 0.005% Tween 20, temperature not stated; recombinant protein; residues 21-431; synthetic backbone
[4] = biological target: pro-uPA W30A W50A (Homo sapiens) (UniProt P00749); test: SPR; conditions: 15 nM aptamer, not among reduced mutants, plasmin activation of W30A also inhibited; 2'-fluoro pyrimidines (2'-F-C, 2'-F-U); SPR: HBS (20 mM HEPES, 140 mM NaCl, pH 7.4), 2 mM MgCl2, 0.1% BSA, 0.005% Tween 20, temperature not stated; recombinant protein; residues 21-431; synthetic backbone
pro-uPA wild type + uPAR [5] = test: SPR competition; conditions: no inhibition of 10 nM pro-uPA:uPAR binding to vitronectin; 2'-fluoro pyrimidines (2'-F-C, 2'-F-U); SAXS: HBS, 2 mM MgCl2, 25 C; recombinant protein; synthetic backbone
[6] = biological target: pro-uPA K61A K81A (Homo sapiens) (UniProt P00749); test: SPR; conditions: 15 nM aptamer, 25-50% reduction; 2'-fluoro pyrimidines (2'-F-C, 2'-F-U); SPR: HBS (20 mM HEPES, 140 mM NaCl, pH 7.4), 2 mM MgCl2, 0.1% BSA, 0.005% Tween 20, temperature not stated; recombinant protein; residues 21-431; synthetic backbone
[7] = biological target: pro-uPA K46A K66A (Homo sapiens) (UniProt P00749); test: SPR; conditions: 15 nM aptamer, 25-50% reduction; 2'-fluoro pyrimidines (2'-F-C, 2'-F-U); SPR: HBS (20 mM HEPES, 140 mM NaCl, pH 7.4), 2 mM MgCl2, 0.1% BSA, 0.005% Tween 20, temperature not stated; recombinant protein; residues 21-431; synthetic backbone
pro-uPA wild type + uPAR [8] = test: SPR; conditions: 100 nM aptamer on captured pro-uPA:uPAR; 2'-fluoro pyrimidines (2'-F-C, 2'-F-U); SPR: HBS (20 mM HEPES, 140 mM NaCl, pH 7.4), 2 mM MgCl2, 0.1% BSA, 0.005% Tween 20, temperature not stated; recombinant protein; synthetic backbone
[9] = biological target: pro-uPA K48A K68A (Homo sapiens) (UniProt P00749); test: SPR; conditions: 15 nM aptamer, 25-50% reduction; 2'-fluoro pyrimidines (2'-F-C, 2'-F-U); SPR: HBS (20 mM HEPES, 140 mM NaCl, pH 7.4), 2 mM MgCl2, 0.1% BSA, 0.005% Tween 20, temperature not stated; recombinant protein; residues 21-431; synthetic backbone
[10] = biological target: pro-uPA K98A K118A (Homo sapiens) (UniProt P00749); test: SPR; conditions: 15 nM aptamer, 25-50% reduction; 2'-fluoro pyrimidines (2'-F-C, 2'-F-U); SPR: HBS (20 mM HEPES, 140 mM NaCl, pH 7.4), 2 mM MgCl2, 0.1% BSA, 0.005% Tween 20, temperature not stated; recombinant protein; residues 21-431; synthetic backbone
[11] = biological target: pro-uPA N22A N42A (Homo sapiens) (UniProt P00749); test: SPR; conditions: 15 nM aptamer, 25-50% reduction; 2'-fluoro pyrimidines (2'-F-C, 2'-F-U); SPR: HBS (20 mM HEPES, 140 mM NaCl, pH 7.4), 2 mM MgCl2, 0.1% BSA, 0.005% Tween 20, temperature not stated; recombinant protein; residues 21-431; synthetic backbone
[12] = biological target: pro-uPA Y284/127A Y304A (Homo sapiens) (UniProt P00749); test: SPR; conditions: 15 nM aptamer, binding not affected; 2'-fluoro pyrimidines (2'-F-C, 2'-F-U); SPR: HBS (20 mM HEPES, 140 mM NaCl, pH 7.4), 2 mM MgCl2, 0.1% BSA, 0.005% Tween 20, temperature not stated; recombinant protein; residues 21-431; synthetic backbone
[13] = biological target: pro-uPA R391/231A R411A (Homo sapiens) (UniProt P00749); test: SPR; conditions: 15 nM aptamer, binding not affected; 2'-fluoro pyrimidines (2'-F-C, 2'-F-U); SPR: HBS (20 mM HEPES, 140 mM NaCl, pH 7.4), 2 mM MgCl2, 0.1% BSA, 0.005% Tween 20, temperature not stated; recombinant protein; residues 21-431; synthetic backbone

| Sequence | binding result ([1]; 25-50% reduction) | binding result ([2]; 25-50% reduction) | binding result [3] | binding result [4] | binding result (pro-uPA wild type + uPAR [5]) | binding result ([1]; binding not affected) | binding result [6] | binding result [7] | binding result ([2]; binding not affected) | binding result (pro-uPA wild type + uPAR [8]) | binding result [9] | binding result [10] | binding result [11] | binding result [12] | binding result [13] |
| --- | --- | --- | --- | --- | --- | --- | --- | --- | --- | --- | --- | --- | --- | --- | --- |
| GGGGCCACCAACGACAUUCAUUCGCACGCUGUGUGGGGAUUAGUCCCGAUGUUGUUGAUAUAAAUAGUGCCCAUGGAUC [upanap-126] | binds more weakly | binds more weakly | binds | binds | – | – | – | – | – | – | – | – | – | – | – |
| GGGGCCACCAACGACAUUUGCGACUGUUAUAACCUAACAGCGACGUAAAGAUAGUUGAUAUAAAUAGUGCCCAUGGAUC [upanap-12] | – | – | binds | – | no binding | binds | binds more weakly | binds more weakly | binds | no binding | binds more weakly | binds more weakly | binds more weakly | binds | binds |
